Measurements: paper PMC9723642

The chains behind the UniProt entries cited, without tags or fusion partners. Residues count along the entry.
UniProt P19338, 2-710: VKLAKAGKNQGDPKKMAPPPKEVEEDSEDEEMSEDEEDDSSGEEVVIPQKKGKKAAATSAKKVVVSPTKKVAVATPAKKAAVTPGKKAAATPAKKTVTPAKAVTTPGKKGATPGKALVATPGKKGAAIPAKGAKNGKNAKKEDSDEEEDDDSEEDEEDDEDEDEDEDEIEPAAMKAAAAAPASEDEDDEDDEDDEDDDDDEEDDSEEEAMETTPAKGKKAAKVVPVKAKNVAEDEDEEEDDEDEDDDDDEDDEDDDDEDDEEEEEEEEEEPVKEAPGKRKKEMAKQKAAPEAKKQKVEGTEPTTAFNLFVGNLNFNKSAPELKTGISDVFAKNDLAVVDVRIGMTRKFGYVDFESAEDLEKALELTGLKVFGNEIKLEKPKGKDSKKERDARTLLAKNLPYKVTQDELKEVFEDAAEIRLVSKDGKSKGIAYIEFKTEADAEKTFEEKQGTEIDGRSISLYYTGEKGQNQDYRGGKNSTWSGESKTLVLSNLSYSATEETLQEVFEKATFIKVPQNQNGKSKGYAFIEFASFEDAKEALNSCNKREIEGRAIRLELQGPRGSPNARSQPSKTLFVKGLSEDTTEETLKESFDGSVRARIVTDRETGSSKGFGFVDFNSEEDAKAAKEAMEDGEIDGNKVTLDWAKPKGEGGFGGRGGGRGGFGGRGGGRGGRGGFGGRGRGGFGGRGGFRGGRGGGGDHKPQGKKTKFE

Key:
Test in all cases: pull-down
[1] = target: T1, Nsr1 wild type (Saccharomyces cerevisiae (Y32)) (UniProt P27476); conditions: 800 mM KCl wash, pull-down: RNA folded in 100 mM KCl, 90 min at room temperature, washes 200-800 mM KCl, protein in an extract, label: 3' biotin-TEG
T1 sequence (looked up, limits assumed): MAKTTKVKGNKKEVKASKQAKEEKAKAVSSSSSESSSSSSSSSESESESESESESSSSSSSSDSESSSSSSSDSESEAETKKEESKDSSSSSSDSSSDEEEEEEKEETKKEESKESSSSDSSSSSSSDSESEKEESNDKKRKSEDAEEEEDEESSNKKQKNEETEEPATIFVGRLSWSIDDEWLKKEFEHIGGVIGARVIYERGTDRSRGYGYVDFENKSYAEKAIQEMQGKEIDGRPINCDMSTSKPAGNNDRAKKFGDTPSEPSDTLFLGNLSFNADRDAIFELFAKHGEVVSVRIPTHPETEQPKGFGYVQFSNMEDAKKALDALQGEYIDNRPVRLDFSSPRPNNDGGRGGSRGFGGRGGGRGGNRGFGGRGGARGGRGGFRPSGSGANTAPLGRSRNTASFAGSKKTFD

[2] = target: T2, Nsr1 from hmt1Δ strain (Saccharomyces cerevisiae (Y32 hmt1Δ)) (UniProt P27476); conditions: hmt1Δ extract vs HMT1wt; pull-down: RNA folded in 100 mM KCl, 90 min at room temperature, washes 200-800 mM KCl; protein in an extract; label: 3' biotin-TEG
T2 sequence (looked up, limits assumed): T1 sequence (looked up, limits assumed)

[3] = target: endogenous NCL (H1299) (Homo sapiens) (UniProt P19338); conditions: pull-down: RNA folded in 100 mM KCl, 90 min at room temperature, washes 200-800 mM KCl, label: 3' biotin-TEG

Sequence	binding result ([1]; residual binding)	binding result [2]	binding result [1]	binding result ([3]; cells treated with MS023, dose-dependent decrease, protein in an …)	binding result ([3]; cells treated with MTA, dose-dependent decrease, protein in an extract)	binding result ([3]; untreated control (DMSO) cells, protein in an extract)
GAGGCAGUAGCAGUAGAA [GM]	binds more weakly					
GGGGCAGGAGCAGGAGGA [GQ]		binds more weakly	binds	binds more weakly	binds more weakly	binds

For at least one entry, the source does not settle the construct or the ends of the probe. Where cells or extracts were used, other partners may take part. The comparison behind a weaker result is the experiment's own reference, which may not be listed here. For part of these data: Where a protein sequence is shown, tags need not be part of it. For part of these data: At least one verdict was read from the data and is not stated in words by the source.
